Results deposited as PubChem BioAssay AID1259405 (NCATS, 2018).

- Assay: 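Silenced genes that increase secreted GFP made by CHO cells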 (primary screen)
- Cell system: Chinese hamster CHO-K1 ovary cells with stable secreted eGFP expression
- Reagent: single siRNA against mouse genes, 0.8 pmol siRNA per well (2 µl of 400 nM stock)
- Time to read-out: 3 days
- Measured: 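Percent of the per-plate non-targeting control median for intracellular GFP per well by laser scanning cytometry and for cell viability by ATP luminescence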
- Scale: GFP, % of control: higher = more GFP per well, higher productivity; viability (ATP), % of control: higher = more viable cells (more ATP)
- Call rule: 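Called active when intracellular GFP, relative to negative control, is at or above 120%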
In all, the deposit lists about 50,000 reagents; shown is a random part of them. Over the whole deposit, about 4,000 (8%) were called active. 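Mouse siRNA library applied to hamster cells; one well for each siRNA.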 Reagents against one gene are numbered here.

gene | reagent | GFP, % of control | viability (ATP), % of control | call
Mapkapk3 (mitogen-activated protein kinase-activated protein kinase 3) | 1 | 119 | 90.5 | inactive
Tas2r143 (taste receptor, type 2, member 143) | 1 | 99.3 | 61.9 | inactive
Tas2r143 (taste receptor, type 2, member 143) | 2 | 92.1 | 75.5 | inactive
Tas2r143 (taste receptor, type 2, member 143) | 3 | 37.8 | 33.6 | inactive
Or8w1 (olfactory receptor family 8 subfamily U member 1) | 1 | 134 | 109 | active
Or8w1 (olfactory receptor family 8 subfamily U member 1) | 2 | 64.1 | 65.9 | inactive
Or8w1 (olfactory receptor family 8 subfamily U member 1) | 3 | 44 | 16.2 | inactive
Eya4 (EYA transcriptional coactivator and phosphatase 4) | 1 | 96.5 | 91 | inactive
Eya4 (EYA transcriptional coactivator and phosphatase 4) | 2 | 129 | 80.1 | active
Eya4 (EYA transcriptional coactivator and phosphatase 4) | 3 | 66 | 68.8 | inactive
Ncoa6 (nuclear receptor coactivator 6) | 1 | 101 | 124 | inactive
Ncoa6 (nuclear receptor coactivator 6) | 2 | 82.4 | 88.4 | inactive
1110059G10Rik (RIKEN cDNA 1110059G10 gene) | 1 | 71.6 | 95.2 | inactive
1110059G10Rik (RIKEN cDNA 1110059G10 gene) | 2 | 60.5 | 81.4 | inactive
1110059G10Rik (RIKEN cDNA 1110059G10 gene) | 3 | 83.4 | 90.6 | inactive
Fam72a (family with sequence similarity 72, member A) | 1 | 59 | 68.3 | inactive
Fam72a (family with sequence similarity 72, member A) | 2 | 58.3 | 78.5 | inactive
Fam72a (family with sequence similarity 72, member A) | 3 | 72 | 76.3 | inactive
Pglyrp1 (peptidoglycan recognition protein 1) | 1 | 137 | 78.3 | active
Pglyrp1 (peptidoglycan recognition protein 1) | 2 | 97.8 | 75.5 | inactive
Pglyrp1 (peptidoglycan recognition protein 1) | 3 | 55.5 | 39.1 | inactive
Pfkfb1 (6-phosphofructo-2-kinase/fructose-2,6-biphosphatase 1) | 1 | 52.2 | 74.8 | inactive
Pfkfb1 (6-phosphofructo-2-kinase/fructose-2,6-biphosphatase 1) | 2 | 82 | 77.3 | inactive
Pfkfb1 (6-phosphofructo-2-kinase/fructose-2,6-biphosphatase 1) | 3 | 90.1 | 88.1 | inactive
Rpp40 (ribonuclease P 40 subunit) | 1 | 41.4 | 49.2 | inactive
Rpp40 (ribonuclease P 40 subunit) | 2 | 96 | 89.7 | inactive
Rpp40 (ribonuclease P 40 subunit) | 3 | 49.5 | 49.4 | inactive
Or51q1c (olfactory receptor family 51 subfamily Q member 1C) | 1 | 109 | 79.1 | inactive
Or51q1c (olfactory receptor family 51 subfamily Q member 1C) | 2 | 119 | 89.9 | inactive
Or51q1c (olfactory receptor family 51 subfamily Q member 1C) | 3 | 40.1 | 78.3 | inactive
Mast1 (microtubule associated serine/threonine kinase 1) | 1 | 89.5 | 84.7 | inactive
Lhx8 (LIM homeobox protein 8) | 1 | 54 | 56.2 | inactive
Lhx8 (LIM homeobox protein 8) | 2 | 71.1 | 72.5 | inactive
Lhx8 (LIM homeobox protein 8) | 3 | 75.7 | 93.9 | inactive

12 of these entries in another layout.
Mapkapk3 (mitogen-activated protein kinase-activated protein kinase 3)
- GFP, % of control: 119
- viability (ATP), % of control: 90.5
- call: inactive

Tas2r143 (taste receptor, type 2, member 143) #1
- GFP, % of control: 99.3
- viability (ATP), % of control: 61.9
- call: inactive

Tas2r143 (taste receptor, type 2, member 143) #2
- GFP, % of control: 92.1
- viability (ATP), % of control: 75.5
- call: inactive

Tas2r143 (taste receptor, type 2, member 143) #3
- GFP, % of control: 37.8
- viability (ATP), % of control: 33.6
- call: inactive

Or8w1 (olfactory receptor family 8 subfamily U member 1) #1
- GFP, % of control: 134
- viability (ATP), % of control: 109
- call: active

Or8w1 (olfactory receptor family 8 subfamily U member 1) #2
- GFP, % of control: 64.1
- viability (ATP), % of control: 65.9
- call: inactive

Or8w1 (olfactory receptor family 8 subfamily U member 1) #3
- GFP, % of control: 44
- viability (ATP), % of control: 16.2
- call: inactive

Eya4 (EYA transcriptional coactivator and phosphatase 4) #1
- GFP, % of control: 96.5
- viability (ATP), % of control: 91
- call: inactive

Eya4 (EYA transcriptional coactivator and phosphatase 4) #2
- GFP, % of control: 129
- viability (ATP), % of control: 80.1
- call: active

Eya4 (EYA transcriptional coactivator and phosphatase 4) #3
- GFP, % of control: 66
- viability (ATP), % of control: 68.8
- call: inactive

Ncoa6 (nuclear receptor coactivator 6) #1
- GFP, % of control: 101
- viability (ATP), % of control: 124
- call: inactive

Ncoa6 (nuclear receptor coactivator 6) #2
- GFP, % of control: 82.4
- viability (ATP), % of control: 88.4
- call: inactive

The list goes on:
gene | reagent | GFP, % of control | viability (ATP), % of control | call
Prkar2b (protein kinase, cAMP dependent regulatory, type II beta) | 1 | 82.9 | 47.3 | inactive
Prkar2b (protein kinase, cAMP dependent regulatory, type II beta) | 2 | 75.7 | 82.4 | inactive
Ctsb (cathepsin B) | 1 | 75.5 | 81.1 | inactive
Ctsb (cathepsin B) | 2 | 77.1 | 43.8 | inactive
Ctsb (cathepsin B) | 3 | 95 | 61.9 | inactive
Scnm1 (sodium channel modifier 1) | 1 | 86.9 | 64 | inactive
Scnm1 (sodium channel modifier 1) | 2 | 123 | 32.3 | active
Scnm1 (sodium channel modifier 1) | 3 | 95 | 84.9 | inactive
Cnnm1 (cyclin M1) | 1 | 57.3 | 88.6 | inactive
Cnnm1 (cyclin M1) | 2 | 128 | 104 | active
Cnnm1 (cyclin M1) | 3 | 121 | 126 | active
Eef1akmt2 (EEF1A lysine methyltransferase 2) | 1 | 122 | 75.5 | active
Eef1akmt2 (EEF1A lysine methyltransferase 2) | 2 | 96.1 | 89.6 | inactive
Eef1akmt2 (EEF1A lysine methyltransferase 2) | 3 | 37.1 | 39.8 | inactive
Mon1b (MON1 homolog B, secretory traffciking associated) | 1 | 73 | 89.3 | inactive
Mon1b (MON1 homolog B, secretory traffciking associated) | 2 | 116 | 114 | inactive
Mon1b (MON1 homolog B, secretory traffciking associated) | 3 | 68.7 | 89 | inactive
Kpna6 (karyopherin subunit alpha 6) | 1 | 50.3 | 45.5 | inactive
Kpna6 (karyopherin subunit alpha 6) | 2 | 73.5 | 59.4 | inactive
Kpna6 (karyopherin subunit alpha 6) | 3 | 95.4 | 66.9 | inactive
Snapin (SNAP-associated protein) | 1 | 50.3 | 117 | inactive
Snapin (SNAP-associated protein) | 2 | 58.7 | 46.3 | inactive
Exosc3 (exosome component 3) | 1 | 54 | 66 | inactive
Exosc3 (exosome component 3) | 2 | 61.4 | 84.2 | inactive
Exosc3 (exosome component 3) | 3 | 57.4 | 65.3 | inactive
Sp140l1 (Sp140 nuclear body protein like 1) | 1 | 75.3 | 61.7 | inactive
Sp140l1 (Sp140 nuclear body protein like 1) | 2 | 71 | 84.8 | inactive
Sp140l1 (Sp140 nuclear body protein like 1) | 3 | 44.2 | 61 | inactive
Nsg1 (neuron specific gene family member 1) | 1 | 61.9 | 72.3 | inactive
Nsg1 (neuron specific gene family member 1) | 2 | 89.6 | 73.4 | inactive
Nsg1 (neuron specific gene family member 1) | 3 | 89.2 | 32.2 | inactive
Sox12 (SRY (sex determining region Y)-box 12) | 1 | 79.3 | 84.3 | inactive
Sox12 (SRY (sex determining region Y)-box 12) | 2 | 72.3 | 83.7 | inactive
Sox12 (SRY (sex determining region Y)-box 12) | 3 | 93.7 | 111 | inactive
Was (Wiskott-Aldrich syndrome) | 1 | 68.1 | 58.2 | inactive
Was (Wiskott-Aldrich syndrome) | 2 | 42.7 | 58.2 | inactive
Was (Wiskott-Aldrich syndrome) | 3 | 70.4 | 79.3 | inactive
Tmco5a (transmembrane and coiled-coil domains 5A) | 1 | 111 | 92.3 | inactive
Tmco5a (transmembrane and coiled-coil domains 5A) | 2 | 59.2 | 65.9 | inactive
Tmco5a (transmembrane and coiled-coil domains 5A) | 3 | 81.4 | 75.3 | inactive
Stk39 (serine/threonine kinase 39) | 1 | 107 | 106 | inactive
Stk39 (serine/threonine kinase 39) | 2 | 77.4 | 71.8 | inactive
Stk39 (serine/threonine kinase 39) | 3 | 69.7 | 71.2 | inactive
Dio3 (deiodinase, iodothyronine type III) | 1 | 105 | 103 | inactive
Dio3 (deiodinase, iodothyronine type III) | 2 | 97.4 | 81.4 | inactive
Dio3 (deiodinase, iodothyronine type III) | 3 | 61.6 | 77.4 | inactive
Ccdc47 (coiled-coil domain containing 47) | 1 | 61.7 | 67.2 | inactive
Ccdc47 (coiled-coil domain containing 47) | 2 | 90.6 | 68.6 | inactive
Ccdc47 (coiled-coil domain containing 47) | 3 | 61.8 | 71 | inactive
Fgf16 (fibroblast growth factor 16) | 1 | 70.1 | 65.1 | inactive
Fgf16 (fibroblast growth factor 16) | 2 | 57.2 | 73 | inactive
Fgf16 (fibroblast growth factor 16) | 3 | 65.5 | 79.5 | inactive
